# Some of the results follow.
# Amino acid sequences for entries named in this document (tags omitted).
# UniProt Q0JBA9, entry or part of it: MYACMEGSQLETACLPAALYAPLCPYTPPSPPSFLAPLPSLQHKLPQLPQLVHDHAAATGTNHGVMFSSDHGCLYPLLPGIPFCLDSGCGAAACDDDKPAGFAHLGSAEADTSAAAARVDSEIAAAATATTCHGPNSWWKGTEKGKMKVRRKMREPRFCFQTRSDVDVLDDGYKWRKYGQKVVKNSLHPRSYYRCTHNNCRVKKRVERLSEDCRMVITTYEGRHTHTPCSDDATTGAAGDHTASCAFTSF
# Target: OsWRKY34 (Oryza sativa, UniProt Q0JBA9 1-250)
# Test: protein-binding microarray (RPBM); PBS, 2% BSA, 51.3 ng/ul salmon testes DNA, 50 uM zinc acetate, 200 nM TF, 25 C, 1 h; high values mean tight binding
# Conditions: protein: recombinant; tags: N-terminal polyhistidine and DsRed monomer fusion (pET32a); label: CyDye5-dUTP incorporated in the synthesized complementary strand; 3' TTTTT single-stranded linker to array surface; dsDNA, one strand shown
# Procedure, shortened: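 An Axon 4000B scanner gave the binding signal as per-feature fluorescence intensity in arbitrary units. This followed washing of a custom Agilent array that had been incubated for 1 h at 25 °C with 200 nM protein in PBS, 2% BSA, salmon testes DNA and 50 µM zinc acetate. The proteins were transcription factors fused at the N-terminus to polyhistidine and DsRed, expressed in E. coli BL21-CodonPlus and purified on Ni–NTA.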
row,Sequence,binding signal
1,AAATTGCTTACCGATCTAGTACTAGTACTATATCTTCATTCGGAGTCACCTAGTGCAG,8340 fluorescence intensity (a.u.)
2,CTCTTTTTATCCACCTATTTATTCTTATATAGATAGTATCCGGAGTCACCTAGTGCAG,8540 fluorescence intensity (a.u.)
3,ACTGTCTGCACGTACGCCACTCTACACAGTACGCACCGCACGGAGTCACCTAGTGCAG,8570 fluorescence intensity (a.u.)
4,TTCTTTCTCCAGAGCCTGGGTCAGGTATGACCTGCTGTTCCGGAGTCACCTAGTGCAG,8670 fluorescence intensity (a.u.)
5,TTTCTTCCAACAATGGACATGGTTTTACCGTTTTTTTTCCCGGAGTCACCTAGTGCAG,9250 fluorescence intensity (a.u.)
6,ATAAAATTTGTCATCTTCTGTTCCTTTTTACTGACAACACCGGAGTCACCTAGTGCAG,9990 fluorescence intensity (a.u.)
7,GAACACACCCTATGTCCCTATCTGTGGATTGCCAGTGCGACGGAGTCACCTAGTGCAG,10100 fluorescence intensity (a.u.)
8,TCACGCCAGCCGCCTCTTCCTGTGCTCTCGACGCCCGTCGCGGAGTCACCTAGTGCAG,8960 fluorescence intensity (a.u.)
9,AGTTTCTCTATGCTTAAGTTTTTTTTTCTTATTTTGCTTTCGGAGTCACCTAGTGCAG,11300 fluorescence intensity (a.u.)
10,AAGGGGAGAGTGTAGGGGCAAGGAAGGCGGCGTACAGATCCGGAGTCACCTAGTGCAG,10200 fluorescence intensity (a.u.)
11,TGCATCTGTACGTTTCACTGAATTCCCCGTTGCTATACCGCGGAGTCACCTAGTGCAG,11200 fluorescence intensity (a.u.)
12,GTTTTCTGCCCTTAACATCTTGCGTACATATAAATTTCATCGGAGTCACCTAGTGCAG,11700 fluorescence intensity (a.u.)
13,GCGTTGACCTGTCAGTCTCCCAGGGCCCCACCATCCACACCGGAGTCACCTAGTGCAG,10100 fluorescence intensity (a.u.)
14,ACTGTTCGTCTTATTTAAAATTTTTTAAATATTATTTATACGGAGTCACCTAGTGCAG,12300 fluorescence intensity (a.u.)
15,GCTCAAGTAAGATGAAAATTGTTCTGTCTTAACCTGCTTTCGGAGTCACCTAGTGCAG,9700 fluorescence intensity (a.u.)
16,CACTCCTCATTTCCTCCTCTTCTCTCGGCATCTTCATCTCCGGAGTCACCTAGTGCAG,8260 fluorescence intensity (a.u.)
17,AATCTCCATCTTCTTGCTCGTACAACGTAAATACTCGTCTCGGAGTCACCTAGTGCAG,8830 fluorescence intensity (a.u.)
18,CCACAAAAACCACCGCCTCGTCTCGTCGCCTCGCCTCCGCCGGAGTCACCTAGTGCAG,9620 fluorescence intensity (a.u.)
19,GCTCTGAACTGTTGCCCATTGGTCTTATTTCCTCTGTATTCGGAGTCACCTAGTGCAG,12500 fluorescence intensity (a.u.)
20,ACATGTTTTATAGATAGCACCTTACTTTACCATTGCGGGTCGGAGTCACCTAGTGCAG,9160 fluorescence intensity (a.u.)
21,ATCTTGTAGAGCTCTTCGCACGGTACCAACTTTTAATTTCCGGAGTCACCTAGTGCAG,9190 fluorescence intensity (a.u.)
22,TTTTTCTTTTTTCTAATTTTCTTCGTTTTATATCTCACAACGGAGTCACCTAGTGCAG,8100 fluorescence intensity (a.u.)
23,ATTCTCCATCCGAACCGCGCCACCACCCGCCGCCCTCATGCGGAGTCACCTAGTGCAG,8810 fluorescence intensity (a.u.)
24,GGAGAGGCCCACTGTTTCTTCCACTTCTCGCCTTGCTCGCCGGAGTCACCTAGTGCAG,9160 fluorescence intensity (a.u.)
25,TTACTCCCGCCTCACTATCTGTCTTGGCGCGTCGTGTACACGGAGTCACCTAGTGCAG,10500 fluorescence intensity (a.u.)
26,TGGTGCCAACTTATTCTCCAGCTGCTTTTTTTTACCTATGCGGAGTCACCTAGTGCAG,8130 fluorescence intensity (a.u.)
27,CGTGTCCCGCATCACGTGTCCTCCGCCCGTCCACTGCTTTCGGAGTCACCTAGTGCAG,10900 fluorescence intensity (a.u.)

# In a second layout: entries from further up
row	Sequence	binding signal
20	ACATGTTTTATAGATAGCACCTTACTTTACCATTGCGGGTCGGAGTCACCTAGTGCAG	9160 fluorescence intensity (a.u.)
22	TTTTTCTTTTTTCTAATTTTCTTCGTTTTATATCTCACAACGGAGTCACCTAGTGCAG	8100 fluorescence intensity (a.u.)

# Carrying on.

row,Sequence,binding signal
1,CCGGCAATCCTCCCACGTCGTCTTCCTCTCGAATTTCGCACGGAGTCACCTAGTGCAG,8030 fluorescence intensity (a.u.)
2,TTCATATGACTCTTGCTAATAGTAATAGCCTCTTGAACTACGGAGTCACCTAGTGCAG,8320 fluorescence intensity (a.u.)
3,TCGTTCAATTTACATCCCTTAGTTCAACATCTTAGTTCTACGGAGTCACCTAGTGCAG,10200 fluorescence intensity (a.u.)
4,ACTCGATTTGTACATTTTTATTGGTTGCATGGCCACAATTCGGAGTCACCTAGTGCAG,9870 fluorescence intensity (a.u.)
5,GGCCTCAGATTTGTCAGCTCCTTGCTTCATCTCCTCCTAACGGAGTCACCTAGTGCAG,9890 fluorescence intensity (a.u.)
6,CGCGATGTGGCCTTGTCCGTCTCCACTCCTGCTCGTCTCCCGGAGTCACCTAGTGCAG,11600 fluorescence intensity (a.u.)
7,AGATTGTTTACTCACACGATGTTTTGTTGTTCTTTGTCATCGGAGTCACCTAGTGCAG,8430 fluorescence intensity (a.u.)
8,CCATTTCTTTCTACTTCCCTTGCTGTTCTTGCCACCCTCTCGGAGTCACCTAGTGCAG,12500 fluorescence intensity (a.u.)
9,GATTTACCATCGCTGTCCGGTTAGCCTCCGTTAACACTGTCGGAGTCACCTAGTGCAG,11100 fluorescence intensity (a.u.)
10,TTTAGGCATGCATCAAGTTGGATTCTATGTGTTTTTTTCTCGGAGTCACCTAGTGCAG,8990 fluorescence intensity (a.u.)
11,TTCCTCGCGCTCCCACGCCACGCAGCAGCCGCAGATCTCCCGGAGTCACCTAGTGCAG,8370 fluorescence intensity (a.u.)
12,AATCTCCATCGTTTCTTCCTTACTCAGGTTTCTATTCCCTCGGAGTCACCTAGTGCAG,13500 fluorescence intensity (a.u.)
13,ACGCTCTTCCTCGCGCGCGGCGCCGTCATCCGCGCCACCCCGGAGTCACCTAGTGCAG,8500 fluorescence intensity (a.u.)
14,AAACTTCGTACACCACGCATTGCCGCCACCGCCGCGCTCGCGGAGTCACCTAGTGCAG,8450 fluorescence intensity (a.u.)
15,CTGTTAATTAATCGTCTAATCATAAGTTCAGTGCTCGTATCGGAGTCACCTAGTGCAG,9810 fluorescence intensity (a.u.)
16,CCATCACTCTCTCTCTCTCGCCTGCTCGCGGTTGCCTGTGCGGAGTCACCTAGTGCAG,8520 fluorescence intensity (a.u.)
17,AACTTTTCCATCACATCAAAACTTTTCTACACACATAAACCGGAGTCACCTAGTGCAG,8910 fluorescence intensity (a.u.)
18,GGAAGTAGAAGCGATAGGGTATAGTTGACCAATTTCGGCTCGGAGTCACCTAGTGCAG,8980 fluorescence intensity (a.u.)
19,TATCTTTTTCTTTTTGGAGGTTTCGTTTTCTCTTGGTCAACGGAGTCACCTAGTGCAG,10400 fluorescence intensity (a.u.)
20,GCCCATTCACTTCCTCGCTTTTTTACCACATAAAAAATCTCGGAGTCACCTAGTGCAG,9780 fluorescence intensity (a.u.)
21,ACACTCCTGCTGTCACTCGTTGCATCTCACCTAGAGACCACGGAGTCACCTAGTGCAG,8300 fluorescence intensity (a.u.)
22,GGTGGAGAGGAATAGCGCCGTATACCTGTGTCTCGTCGTGCGGAGTCACCTAGTGCAG,9660 fluorescence intensity (a.u.)
23,ATCTGAATTGTATTCCACGGTGCTATTAGGCCTCACGAAACGGAGTCACCTAGTGCAG,8060 fluorescence intensity (a.u.)
24,TTCACACATATTTATAAGCGCCTGCGTTTCACTGTGTTTTCGGAGTCACCTAGTGCAG,9340 fluorescence intensity (a.u.)
25,AGTCCATTGGAGAATCGATCGGTTTGTTGCACACTTATTTCGGAGTCACCTAGTGCAG,9710 fluorescence intensity (a.u.)
26,TTCTCTCTTGGTCTTATCCTCCTCCTTGTTGTTGCGGGAACGGAGTCACCTAGTGCAG,8410 fluorescence intensity (a.u.)
27,TGATTTCATCCCACCATCGATACTTTGTGCTTAGTTTTCTCGGAGTCACCTAGTGCAG,12800 fluorescence intensity (a.u.)

# Source: PMC7819943, “Rice protein-binding microarrays: a tool to detect cis-acting elements near promoter regions in rice”
